{"source": "patent US10874684B2", "about": "“Liponucleotide-based therapy for ARDS” (Ohio State Innovation Foundation, priority 2016, dated 2020)", "system": "mock-inoculated mice (virus diluent)", "conditions": "day 6, CDP-choline 100 μg/mouse i.p.", "data": [{"smiles": "C[N+](C)(C)CCOP(=O)(O)OP(=O)(O)OC[C@H]1O[C@@H](n2ccc(N)nc2=O)C(O)C1O", "note": "(some centres unmarked) [CDP-CHO, Cytidine diphosphate-choline]", "values": [{"measurement": "HR (bpm)", "result": "730 ± 10", "unit": "bpm"}, {"measurement": "SaO2 (%)", "result": "99.0 ± 0.2", "unit": "%"}]}]}
